# Results reported in PubChem BioAssay AID1671190 (National Center for Advancing Translational Sciences (NCATS), 2021).
# Protein sequences, listed by entry. Tags and fused reporters are not part of them. Lines headed by an entry give the natural chain unless they say otherwise; changes in a name come on top.
# UniProt P18054: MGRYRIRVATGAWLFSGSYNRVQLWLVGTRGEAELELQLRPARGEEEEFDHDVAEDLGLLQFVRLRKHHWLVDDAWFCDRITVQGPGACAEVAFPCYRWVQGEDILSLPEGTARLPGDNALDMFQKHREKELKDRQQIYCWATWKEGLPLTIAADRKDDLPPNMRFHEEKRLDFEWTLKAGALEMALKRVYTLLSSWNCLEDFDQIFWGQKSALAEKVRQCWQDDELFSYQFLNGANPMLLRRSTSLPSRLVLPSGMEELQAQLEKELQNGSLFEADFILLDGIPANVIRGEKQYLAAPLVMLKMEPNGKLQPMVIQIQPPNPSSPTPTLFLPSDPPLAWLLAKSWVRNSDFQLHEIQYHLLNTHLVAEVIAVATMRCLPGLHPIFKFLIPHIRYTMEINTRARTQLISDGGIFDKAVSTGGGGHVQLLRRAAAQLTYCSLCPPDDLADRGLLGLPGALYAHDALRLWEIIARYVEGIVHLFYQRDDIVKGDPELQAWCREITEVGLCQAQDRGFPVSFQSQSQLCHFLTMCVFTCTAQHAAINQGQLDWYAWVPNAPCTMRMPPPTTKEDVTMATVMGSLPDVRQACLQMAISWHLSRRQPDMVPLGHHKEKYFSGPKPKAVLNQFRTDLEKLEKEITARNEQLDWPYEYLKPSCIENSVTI
# Out of some 580,000 compounds screened, about 6,100 (1.1%) were called active. This list was built around the results that the source calls inconclusive (neither active nor inactive); the mix of calls is not that of the screen. Calls come from the whole dose curve; as a rule, active = well fitted inhibition curve with a large enough effect; inconclusive = small, poorly fitted or top-dose-only effect, or another doubt; inactive = no such curve, though single readings can be large or run the other way. A potency beside an inconclusive call is a rough fit, not a confirmed value. Some compounds were tested as several samples or in several runs, with calls that do not always agree.
# Target: Polyunsaturated fatty acid lipoxygenase ALOX12 (Homo sapiens) (UniProt P18054)
# Assay: Primary qHTS assay for inhibitors of human arachidonate 12S-lipoxygenase (ALOX12): Round 2
# Details: purified 12hLO, xylenol orange hydroperoxide absorbance; activity change, negative = inhibition: at 108 µM (top of the series) unless noted
# Outline: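 Purified human 12hLO at 150 nM in 25 mM Hepes, 0.01% Triton X-100, pH 7.0, preincubated 15 min at room temperature with compound. Reaction started with 40 uM arachidonic acid, 30 min at room temperature. Hydroperoxide measured by Fe-xylenol orange, 573/405 nm absorbance ratio.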
# % is set by controls: 0 for no effect and ±100 for the full control effect; potency is the fitted concentration of half-maximal effect.
SMILES,Potency,"activity change, negative = inhibition"
CCNC(=S)N/N=C1\CCCCC1C (stereo not given),"inconclusive: 0.631 µM [inhibitor, full curve, poor fit]",
COc1ccc(F)c(CN2CCCN3CCC[C@H]3C2)c1Cl,"inconclusive: 20 µM [inhibitor, full curve]",
CC1=C[C@@H](CNC(=O)CC(C)(C)CC(=O)O)[C@H](C(C)C)C[C@H]1Cc1nc2c(C)cccc2[nH]1,"inconclusive: 11.2 µM [inhibitor, full curve]",
CCOc1ccc(CNC(=O)c2cc3cc(S(=O)(=O)N4CCCCC4)ccc3n2C)cc1,"inconclusive: 141 µM [inhibitor, partial curve, poor fit]",
CC1CCN(S(=O)(=O)c2cc(C(=O)N3CCN(c4ncccn4)CC3)ccc2Br)CC1,,inactive: -6.41%
Oc1ccc(NCc2ccccc2OCc2ccccc2)cc1,active: 11.2 µM,
N#Cc1ccc(C(=O)N2CCC(c3n[nH]c(=O)n3-c3ccccc3)CC2)cc1,"inconclusive: 31.6 µM [inhibitor, partial curve]",
O=C1c2ccccc2-[n+]2ccc3c([nH]c4ccccc43)c21,"inconclusive: 50.1 µM [inhibitor, partial curve, poor fit]",
CCCOc1ccc(/C=C2/C(=O)ON=C2C)cc1Cl,active: 5.62 µM,
CCCCCn1c(NCCO)nc2c1c(=O)[nH]c(=O)n2C,,inactive: -7.98%
CC(O)(c1cccc(F)c1)c1nc(-c2csc3ccccc23)cs1 (stereo not given),"inconclusive: 50.1 µM [inhibitor, partial curve, poor fit]",
COc1ccc(C(=O)NCCc2csc(-c3ccc(Cl)cc3)n2)c(OC)c1,"inconclusive: 126 µM [inhibitor, partial curve, poor fit]",
CC(C)CC(=O)N1CCOc2ccc(CN3CCc4ccccc4C3)cc2C1,,inactive: 127%
CN1CCN(c2nc(-c3cccs3)cs2)CC1,,inactive: -16.7%
COc1cccc(NC(=O)CN(C)C(=O)C23CC4CC(CC(Cl)(C4)C2)C3)c1,,inactive: 400%
Cc1nn2c(=O)cc(CSc3nnc(-c4cccc(Cl)c4)o3)nc2s1,,inactive: 6.62%
CCn1cc(C(=O)OCC(=O)Nc2cccc(S(=O)(=O)N3CCOCC3)c2)c(=O)c2ccc(C)nc21,"inconclusive: 100 µM [inhibitor, single point]",
Cc1ccc(Cl)cc1-n1c(SCC(=O)NCc2ccccc2)nc2n[nH]c(C)c2c1=N,"inconclusive: 141 µM [inhibitor, partial curve, poor fit]",

SMILES,Potency,"activity change, negative = inhibition"
COC(=O)C1=CN(CCCN2CCCC2=O)C=C(C(=O)OC)C1c1cccs1,,inactive: -12.8%
CSCCC(NC(=O)COc1ccccc1)C(=O)N1CCCCCC1 (stereo not given),,inactive: 238%
Cc1cc([N+](=O)[O-])ccc1NC(=O)CSc1nncn1-c1cccnc1,"inconclusive: 126 µM [inhibitor, single point]",
CCCCN(C(=O)Cc1cccs1)c1nnc(-c2cccnc2)s1,"inconclusive: 14.1 µM [inhibitor, partial curve, poor fit]",
Cc1nc2c(OCC(=O)C(C)(C)C)cccn2c1N(C)Cc1cccs1,"inconclusive: 70.8 µM [inhibitor, partial curve, poor fit]",
O=c1cc(CN2CCN(C/C=C/c3ccccc3)CC2)c2cc(O)c(-c3ccccc3)cc2o1,inactive,
Cc1oc2cc(OS(C)(=O)=O)ccc2c(=O)c1-c1ccc(Cl)cc1,"inconclusive: 25.1 µM [inhibitor, partial curve]",
O=C(c1ccco1)c1coc2c1cc(O)c1ccccc12,"inconclusive: 50.1 µM [inhibitor, partial curve, poor fit]",
O=C(CN(c1ccc2c(c1)OCCO2)S(=O)(=O)c1ccccc1)NCc1ccco1,"inconclusive: 1.41 µM [inhibitor, partial curve, poor fit]",
Cn1cccc1/C=N/N1CCN(c2ccccn2)CC1,"inconclusive: 50.1 µM [inhibitor, partial curve, poor fit]",
COc1ccc(C2Nc3ccccc3C(=O)N2Cc2ccco2)cc1COc1ccc(NC(C)=O)cc1 (stereo not given),,inactive: 0% [at 57.4 µM]
COc1ccc(C(C)=O)cc1COC(=O)c1c(C)nn(-c2ccccc2)c1C,"inconclusive: 126 µM [inhibitor, single point]",
O=C(OC1CCCCC1)c1cccc(CS(=O)(=O)c2ccccc2)c1,"inconclusive: 35.5 µM [inhibitor, partial curve]",
COc1ccc(NC(=O)c2ccc(Cc3ccc(C)cc3)o2)cc1,,inactive: 4.3%
CCC(C)[C@H]1CNC(=S)N1CCc1cccc2ccccc12 (stereo not given in full),"inconclusive: 39.8 µM [inhibitor, partial curve, poor fit]",
CCN(CC)C(=O)Oc1ccc2cc(-c3ccccc3)c(=O)oc2c1,,inactive: 13.2%
Cc1cc(C(=O)NCc2ccco2)c2cccc(-c3ccccc3)c2n1,"inconclusive: 35.5 µM [inhibitor, full curve, poor fit]",

# Entries listed so far with an aryl thioether with sulfur outside any ring, in the order listed:
SMILES,Potency,"activity change, negative = inhibition"
Cc1nn2c(=O)cc(CSc3nnc(-c4cccc(Cl)c4)o3)nc2s1,,inactive: 6.62%
Cc1ccc(Cl)cc1-n1c(SCC(=O)NCc2ccccc2)nc2n[nH]c(C)c2c1=N,"inconclusive: 141 µM [inhibitor, partial curve, poor fit]",
Cc1cc([N+](=O)[O-])ccc1NC(=O)CSc1nncn1-c1cccnc1,"inconclusive: 126 µM [inhibitor, single point]",
